Results are given in words; binding and its absence hold for the method and conditions named. In cells and extracts the contact can be indirect. Binding can be weak; no strength is given.

We go through one substance from article PMC6588558.

In one assay the target is T1, CovR (S. pyogenes) (UniProt O87527).
T1 sequence: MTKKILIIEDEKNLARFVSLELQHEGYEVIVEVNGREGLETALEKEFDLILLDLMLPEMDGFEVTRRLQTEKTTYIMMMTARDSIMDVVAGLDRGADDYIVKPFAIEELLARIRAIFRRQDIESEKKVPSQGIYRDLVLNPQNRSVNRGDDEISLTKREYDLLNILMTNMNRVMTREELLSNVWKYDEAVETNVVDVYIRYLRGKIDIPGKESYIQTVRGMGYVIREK
The assay can be described thus: pull-down; AP reactions of affinity-tagged baits in human plasma, separated by SDS-PAGE and blotted with anti-fibrinogen or anti-human serum albumin antibody; only the target purified.

Assay [1] deals with T2, CovR of S. pyogenes strain SF370 (endogenous) (S. pyogenes (endogenous in strain SF370)) (UniProt O87527).
T2 sequence: T1 sequence
In words: cross-linking.

For the substance human fibrinogen (complex), the binding result (with CovR (S. pyogenes); in assay [1]) was “binds” throughout.
